Reference: PMC9837939

By UniProt entry, the sequences of proteins in these tests, tags left out.
UniProt Q9ULQ0: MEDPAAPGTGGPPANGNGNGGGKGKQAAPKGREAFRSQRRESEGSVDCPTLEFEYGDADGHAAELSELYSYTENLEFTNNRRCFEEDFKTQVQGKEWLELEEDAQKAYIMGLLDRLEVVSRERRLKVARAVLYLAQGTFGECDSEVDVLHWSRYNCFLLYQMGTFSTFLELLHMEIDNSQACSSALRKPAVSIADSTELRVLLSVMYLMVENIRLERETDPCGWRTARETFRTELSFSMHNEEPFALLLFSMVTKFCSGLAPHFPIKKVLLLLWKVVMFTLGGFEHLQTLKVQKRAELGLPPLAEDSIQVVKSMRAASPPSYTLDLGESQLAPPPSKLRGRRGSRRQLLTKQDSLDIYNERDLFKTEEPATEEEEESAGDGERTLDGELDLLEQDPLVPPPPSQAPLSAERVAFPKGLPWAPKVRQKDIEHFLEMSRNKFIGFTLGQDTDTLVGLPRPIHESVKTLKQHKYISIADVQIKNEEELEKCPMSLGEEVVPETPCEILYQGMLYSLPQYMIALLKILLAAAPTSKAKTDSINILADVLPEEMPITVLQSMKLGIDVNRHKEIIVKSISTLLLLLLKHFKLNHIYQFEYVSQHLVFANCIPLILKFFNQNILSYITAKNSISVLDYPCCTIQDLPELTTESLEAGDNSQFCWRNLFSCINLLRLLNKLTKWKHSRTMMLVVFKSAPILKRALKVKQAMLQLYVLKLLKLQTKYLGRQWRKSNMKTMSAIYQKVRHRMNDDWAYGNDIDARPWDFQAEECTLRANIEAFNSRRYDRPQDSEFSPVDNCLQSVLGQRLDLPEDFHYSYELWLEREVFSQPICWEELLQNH
UniProt O00425: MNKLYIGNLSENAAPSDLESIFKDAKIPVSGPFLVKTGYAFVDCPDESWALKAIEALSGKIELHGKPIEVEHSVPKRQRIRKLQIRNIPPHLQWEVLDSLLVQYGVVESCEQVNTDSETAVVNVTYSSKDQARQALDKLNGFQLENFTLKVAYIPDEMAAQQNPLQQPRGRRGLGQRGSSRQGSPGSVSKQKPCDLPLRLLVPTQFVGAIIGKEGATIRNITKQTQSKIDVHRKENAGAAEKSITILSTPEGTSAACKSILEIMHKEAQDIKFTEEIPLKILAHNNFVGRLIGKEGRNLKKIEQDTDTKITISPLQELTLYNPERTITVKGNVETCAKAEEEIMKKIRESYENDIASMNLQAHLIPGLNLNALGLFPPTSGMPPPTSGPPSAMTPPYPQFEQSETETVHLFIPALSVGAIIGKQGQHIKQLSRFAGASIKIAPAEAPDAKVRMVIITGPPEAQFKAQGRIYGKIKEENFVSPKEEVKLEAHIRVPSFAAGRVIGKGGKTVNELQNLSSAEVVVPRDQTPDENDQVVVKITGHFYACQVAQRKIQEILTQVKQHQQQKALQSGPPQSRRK

Target: STRIP2, bait of the immunoprecipitation coupled with mass spectrometry (UniProt Q9ULQ0)
Test: affinity purification with mass spectrometry; immunoprecipitation of STRIP2 against a control sample, silver-stained gel, differential band analysed by tandem mass spectrometry; cells not given

IGF2BP3 found by mass spectrometry in the STRIP2 immunoprecipitate (from UniProt O00425 1-579)
binding: binds

Results are given in words; binding and its absence hold for the method and conditions named. Binding seen in cells or lysates may run through a third protein. A yes stands for co-enrichment or nearness to the bait. Other partners may have been found.
